{"source": "patent US7968098B2", "about": "“HLA-A24-binding KIF-derived peptide” (Kurume University, priority 2006, dated 2011)", "tested_on": "PBMCs of HLA-A24+ glioma patients", "format": "cell-based, human", "conditions": "for Total (patients with induction of peptide-reactive CTLs): HLA-A24+ glioma patients, positive = P<0.05 and >100 pg/ml IFN-γ over HIV peptide; for IFN-γ: vs HIV peptide", "key": {"[1]": {"conditions": "PBMCs of HLA-A24+ glioma Patient 1, 10 μg/ml peptide"}, "[2]": {"conditions": "PBMCs of HLA-A24+ glioma Patient 2, 10 μg/ml peptide"}, "[3]": {"conditions": "PBMCs of HLA-A24+ glioma Patient 3, 10 μg/ml peptide"}, "[4]": {"conditions": "PBMCs of HLA-A24+ glioma Patient 4, 10 μg/ml peptide"}, "[5]": {"conditions": "PBMCs of HLA-A24+ glioma Patient 9, 10 μg/ml peptide"}, "[6]": {"conditions": "PBMCs of HLA-A24+ glioma Patient 10, 10 μg/ml peptide"}}, "note": "Read-outs that look alike come from different tables or passages of the source. Not every detail of the peptide structures is certain; ends, links or a residue may be inferred. No end group written: not given here."}
{"sequence": "IYCERVRDLL [KIF1C 149-158]", "values": [{"measurement": "Total (patients with induction of peptide-reactive CTLs)", "value": "3/10"}, {"measurement": "Induction of peptide-specific CTLs, positive healthy donors", "setting": "HLA-A24+ healthy donors, data not shown", "value": "1 of 5"}, {"measurement": "IFN-γ", "setting": "[1]", "value": 0, "unit": "pg/mL"}, {"measurement": "IFN-γ", "setting": "[2]", "value": 11, "unit": "pg/mL"}, {"measurement": "IFN-γ", "setting": "[3]", "value": 30, "unit": "pg/mL"}, {"measurement": "IFN-γ", "setting": "[4]", "value": 0, "unit": "pg/mL"}, {"measurement": "IFN-γ", "setting": "PBMCs of HLA-A24+ glioma Patient 7, 10 μg/ml peptide", "value": 38, "unit": "pg/mL"}, {"measurement": "IFN-γ", "setting": "[5]", "value": 0, "unit": "pg/mL"}, {"measurement": "IFN-γ", "setting": "[6]", "value": 0, "unit": "pg/mL"}]}
{"sequence": "KYKAMESKL [KIF3C 512-520]", "values": [{"measurement": "Total (patients with induction of peptide-reactive CTLs)", "value": "3/10"}, {"measurement": "IFN-γ", "setting": "[1]", "value": 24, "unit": "pg/mL"}, {"measurement": "IFN-γ", "setting": "[2]", "value": 0, "unit": "pg/mL"}, {"measurement": "IFN-γ", "setting": "[3]", "value": 48, "unit": "pg/mL"}, {"measurement": "IFN-γ", "setting": "[4]", "value": 27, "unit": "pg/mL"}, {"measurement": "IFN-γ", "setting": "PBMCs of HLA-A24+ glioma Patient 6, 10 μg/ml peptide", "value": 91, "unit": "pg/mL"}, {"measurement": "IFN-γ", "setting": "[5]", "value": 0, "unit": "pg/mL"}, {"measurement": "IFN-γ", "setting": "[6]", "value": 0, "unit": "pg/mL"}]}
